Consider 5 substances from PMC11984401.

Sequences of proteins named here, by UniProt entry; tags and fusion partners are left off. A change or cut given only in a name is not applied to a line headed by its entry.
UniProt Q13643: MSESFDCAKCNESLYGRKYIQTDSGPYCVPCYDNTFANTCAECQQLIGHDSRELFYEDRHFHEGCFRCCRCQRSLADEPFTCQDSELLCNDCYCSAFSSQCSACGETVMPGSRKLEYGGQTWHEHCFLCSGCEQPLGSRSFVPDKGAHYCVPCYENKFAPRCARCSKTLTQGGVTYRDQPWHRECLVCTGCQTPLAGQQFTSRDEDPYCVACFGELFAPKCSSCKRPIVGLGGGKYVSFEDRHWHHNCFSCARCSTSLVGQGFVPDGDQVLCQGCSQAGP

No constants are given. Whether binding was seen depends on the method and setting. Binding seen in cells or lysates may run through a third protein. Binding calls can cover weak binding; strength is not graded here. Where a sequence is shown, tags or fusion partners need not be part of it.

In this test the target is T1, C-terminal FLAG-tagged AMBP (alpha-1-microglobulin/bikunin precursor) (UniProt P02760).
T1 sequence: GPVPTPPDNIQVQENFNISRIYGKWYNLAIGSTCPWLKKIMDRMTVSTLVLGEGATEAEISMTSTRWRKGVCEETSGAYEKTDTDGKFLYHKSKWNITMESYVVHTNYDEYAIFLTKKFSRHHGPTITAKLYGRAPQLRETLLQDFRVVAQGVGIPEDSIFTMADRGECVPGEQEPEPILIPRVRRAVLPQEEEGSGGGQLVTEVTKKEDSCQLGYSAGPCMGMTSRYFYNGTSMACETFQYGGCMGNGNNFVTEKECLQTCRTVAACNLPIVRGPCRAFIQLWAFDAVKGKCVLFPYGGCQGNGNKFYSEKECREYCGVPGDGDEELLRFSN
In words: co-IP; HEK293T co-transfected with AMBP-Flag and full-length or truncated FHL3-HA plasmids for 48 h; lysates precipitated with Flag antibodies; immunoblot with HA antibodies. Background: Immunoblotting shows a protein as a band on a membrane.
Take “FHL3-HA lacking the LIM2 domain (from UniProt Q13643) (domain or fragment)”: the binding result is “binds”.

Consider “FHL3-HA lacking the LIM1 domain (from UniProt Q13643) (domain or fragment)”, for which the binding result is on record as “binds”.

As for “FHL3-HA lacking the LIM3 domain (from UniProt Q13643) (domain or fragment)”, the binding entry is recorded as “binds”.

As to “FHL3-HA lacking the LIM4 domain (from UniProt Q13643) (domain or fragment)”, the binding entry is “binds”.

Take “FHL3-HA lacking the ZF domain (from UniProt Q13643) (domain or fragment)”: the binding result is “no binding”.
